Patent publication US20100292091A1, “MARA FAMILY HELIX-TURN-HELIX DOMAINS AND THEIR METHODS OF USE” (Trustees of Tufts College, priority 1998, published 2010)
At least one compound was matched to its structure with a doubt left.

Tested on: M. smegmatis mc^2155
Assay type: cell-based, Mycobacterium smegmatis

## CN(C)[C@@H]1C(O)=C(C(N)=O)C(=O)[C@@]2(O)C(O)=C3C(=O)c4c(O)cccc4[C@@](C)(O)[C@H]3C[C@@H]12 [TET, tetracycline]
  fold increase of resistance in the presence of marA: five-fold
  resistance compared to the microbe with vector alone: increased resistance
